Experiment [1] concerns the target Flag-USP14 (UniProt P54578). The experiment in a line: co-IP; HEK293T cells co-transfected with Flag-USP14, His-UCHL5 and GFP-PKCα; immunoprecipitated with antibodies against Flag, His and GFP.
Experiment [2] has as its target His-UCHL5 (UniProt Q9Y5K5). Described as above.
Experiment [3] deals with UCHL5 (endogenous) (human (endogenous in CAL62)) (UniProt Q9Y5K5). Description: co-IP; endogenous proteins in CAL62 lysate; immunoprecipitated with specific antibodies against USP14, UCHL5 or PKCα (IgG negative control), Protein A/G magnetic beads, RIPA buffer, 4 °C.
The target of experiment [4] is USP14 (endogenous) (human (endogenous in CAL62)) (UniProt P54578). The description is as above.

Amino acid sequences for entries named in this document (tags omitted).
UniProt P54578: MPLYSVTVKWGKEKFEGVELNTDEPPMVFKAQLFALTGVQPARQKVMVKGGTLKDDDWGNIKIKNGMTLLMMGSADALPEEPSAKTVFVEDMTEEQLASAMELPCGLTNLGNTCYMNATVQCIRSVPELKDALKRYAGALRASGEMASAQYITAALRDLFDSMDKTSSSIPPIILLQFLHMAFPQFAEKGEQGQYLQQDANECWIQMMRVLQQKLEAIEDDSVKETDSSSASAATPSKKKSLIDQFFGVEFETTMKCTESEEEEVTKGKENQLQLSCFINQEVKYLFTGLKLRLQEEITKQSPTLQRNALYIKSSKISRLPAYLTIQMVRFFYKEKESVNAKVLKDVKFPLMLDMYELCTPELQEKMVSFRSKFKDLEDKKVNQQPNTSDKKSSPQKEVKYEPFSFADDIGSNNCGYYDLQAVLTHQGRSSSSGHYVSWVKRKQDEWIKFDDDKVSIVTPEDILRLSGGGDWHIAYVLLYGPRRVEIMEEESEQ

No constants are given. Whether binding was seen depends on the method and setting. Binding seen in cells or lysates may run through a third protein. Some entries that bind do so weakly or less than the wild type.

“GFP-PKCα (from UniProt P17252 1-672) (enzyme)”: the binding entry in experiment [1] and in experiment [2] was “binds” in each case.
On to “PKCα (endogenous) (from UniProt P17252 1-672) (enzyme)”, for which the binding result in experiment [3] and in experiment [4] was “binds” each time.

The record behind these values is article PMC12350928.
